Experimental data reported in PMC9505868.
Results are given in words; binding and its absence hold for the method and conditions named. For some assays here: In cells and extracts the contact can be indirect. Some binding calls cover weakened binding; strength is not graded here. For some assays here: Tags and fused reporters may be left off the sequences shown.

Chains of the proteins cited; added tags and fusions are not shown. Residues count along the entry.
UniProt Q05320, residues 33-676: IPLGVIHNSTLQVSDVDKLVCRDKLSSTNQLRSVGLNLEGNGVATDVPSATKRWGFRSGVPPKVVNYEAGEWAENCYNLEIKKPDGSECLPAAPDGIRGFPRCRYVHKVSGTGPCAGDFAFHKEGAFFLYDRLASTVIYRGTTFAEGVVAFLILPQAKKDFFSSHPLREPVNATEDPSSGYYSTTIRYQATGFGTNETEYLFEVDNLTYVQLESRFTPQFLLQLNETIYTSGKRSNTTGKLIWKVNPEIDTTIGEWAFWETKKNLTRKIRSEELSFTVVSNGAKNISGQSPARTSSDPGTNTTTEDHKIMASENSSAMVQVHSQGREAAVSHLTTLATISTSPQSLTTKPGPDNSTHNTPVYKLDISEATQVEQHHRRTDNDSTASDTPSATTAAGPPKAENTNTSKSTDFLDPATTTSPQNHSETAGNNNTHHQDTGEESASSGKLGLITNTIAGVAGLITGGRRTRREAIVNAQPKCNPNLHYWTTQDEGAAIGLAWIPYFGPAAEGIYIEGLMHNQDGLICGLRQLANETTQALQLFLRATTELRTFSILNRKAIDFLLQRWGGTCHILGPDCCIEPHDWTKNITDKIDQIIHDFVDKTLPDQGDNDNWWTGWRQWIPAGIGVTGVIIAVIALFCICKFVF
UniProt Q05128: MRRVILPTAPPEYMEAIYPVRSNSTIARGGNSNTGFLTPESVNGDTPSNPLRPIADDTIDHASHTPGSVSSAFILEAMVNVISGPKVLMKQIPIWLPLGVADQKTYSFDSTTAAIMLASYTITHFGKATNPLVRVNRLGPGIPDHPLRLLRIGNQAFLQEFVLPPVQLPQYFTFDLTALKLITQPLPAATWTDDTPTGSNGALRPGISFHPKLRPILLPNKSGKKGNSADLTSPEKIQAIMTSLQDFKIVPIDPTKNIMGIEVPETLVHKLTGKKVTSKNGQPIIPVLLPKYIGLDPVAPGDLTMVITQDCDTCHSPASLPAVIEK

Key:
[1] = biological target: Ebola virus glycoprotein GP (Ebola virus (EBOV)) (UniProt Q05320); test: proximity ligation
[2] = biological target: Maltose binding protein (MBP)-tagged VP40 (Ebola virus (EBOV)) (UniProt Q05128); test: pull-down; both purified

B1: macrophage-capping protein (CAPG) (protein, UniProt P40121-1 1-348)
chain: MYTAIPQSGSPFPGSVQDPGLHVWRVEKLKPVPVAQENQGVFFSGDSYLVLHNGPEEVSHLHLWIGQQSSRDEQGACAVLAVHLNTLLGERPVQHREVQGNESDLFMSYFPRGLKYQEGGVESAFHKTSTGAPAAIKKLYQVKGKKNIRATERALNWDSFNTGDCFILDLGQNIFAWCGGKSNILERNKARDLALAIRDSERQGKAQVEIVTDGEEPAEMIQVLGPKPALKEGNPEEDLTADKANAQAAALYKVSDATGQMNLTKVADSSPFALELLISDDCFVLDNGLCGKIYIWKGRKANEKERQAALQVAEGFISRMQYAPNTQVEILPQGHESPIFKQFFKDWK
**Q.** How did the binding [1] turn out when B1 was run?
**A.** binds

B2: His6-tagged CAPG (protein, UniProt P40121-1 1-348)
chain: MYTAIPQSGSPFPGSVQDPGLHVWRVEKLKPVPVAQENQGVFFSGDSYLVLHNGPEEVSHLHLWIGQQSSRDEQGACAVLAVHLNTLLGERPVQHREVQGNESDLFMSYFPRGLKYQEGGVESAFHKTSTGAPAAIKKLYQVKGKKNIRATERALNWDSFNTGDCFILDLGQNIFAWCGGKSNILERNKARDLALAIRDSERQGKAQVEIVTDGEEPAEMIQVLGPKPALKEGNPEEDLTADKANAQAAALYKVSDATGQMNLTKVADSSPFALELLISDDCFVLDNGLCGKIYIWKGRKANEKERQAALQVAEGFISRMQYAPNTQVEILPQGHESPIFKQFFKDWK
**Q.** For B2, which binding [2] is on record?
**A.** no binding (tested: 1 mg/mL)
